Results: the supplement of paper PMC6418307
Single values of this set are uncertain.

Tested on: primary mouse cortical neurons
Assay: cell health score (luciferase spike-in reads / total reads per well) (fraction); higher = fewer cellular reads, worse cell health / toxicity
Details: treatment time 24 h
[1] = 0.01 µM, sex of neuron culture: Female
[2] = 0.01 µM, sex of neuron culture: Male
[3] = 0.1 µM, sex of neuron culture: Female
[4] = 0.1 µM, sex of neuron culture: Male
[5] = 1 µM, sex of neuron culture: Female
[6] = 1 µM, sex of neuron culture: Male
[7] = 10 µM, sex of neuron culture: Female
[8] = 10 µM, sex of neuron culture: Male

| SMILES | cell health score [1] | cell health score [2] | cell health score [3] | cell health score [4] | cell health score [5] | cell health score [6] | cell health score [7] | cell health score [8] |
| --- | --- | --- | --- | --- | --- | --- | --- | --- |
| CCCOc1nn(C(=O)NS(=O)(=O)c2ccccc2C(=O)OC)c(=O)n1C [Propoxycarbazone-sodium] | 0.000368 | 0.00272 | 0.000682 | 0.000742 | 0.000748 | 0.00048 | 0.000782 | 0.00066 |
| Cc1cnc(-c2cnc(NCCNc3ccc(C#N)cn3)nc2-c2ccc(Cl)cc2Cl)[nH]1 | 0.000507 | 0.0018 | 0.0011 | 0.000974 | 0.00108 | 0.000833 | 0.00106 | 0.00109 |
| COP(=S)(OC)Oc1nc(Cl)c(Cl)cc1Cl [Chlorpyrifos-methyl] | 0.000731 | 0.000934 | 0.000907 | 0.000741 | 0.00085 | 0.000876 | 0.00118 | 0.000503 |
| O=C(O)c1cn(C2CC2)c2cc(N3CCNCC3)c(F)cc2c1=O [Ciprofloxacin] | 0.000557 | 0.00116 | 0.000609 | 0.000682 | 0.000592 | 0.000644 | 0.000705 | 0.000511 |
| C=CCC1=C(C)C(OC(=O)C2C(C=C(C)C)C2(C)C)CC1=O (configuration not stated) [Allethrin] | 0.000738 | 0.000983 | 0.000782 | 0.00076 | 0.000803 | 0.000487 | 0.00118 | 0.000478 |
| CS/C(C)=N\OC(=O)N(C)SN(C)C(=O)O/N=C(\C)SC [Thiodicarb] | 0.000503 | 0.00068 | 0.000752 | 0.000565 | 0.00125 | 0.00049 | 0.000794 | 0.00066 |
| CC(C)(C)c1ccc(CCOc2ncnc3ccccc23)cc1 [Fenazaquin] | 0.00215 | 0.0168 | 0.00699 | 0.0105 | 0.0146 | 0.00925 | 0.0141 | 0.0121 |
| COC(=O)N(C(=O)N1CO[C@@]2(C(=O)OC)Cc3cc(Cl)ccc3C2=N1)c1ccc(OC(F)(F)F)cc1 [Indoxacarb] | 0.00126 | 0.000781 | 0.000819 | 0.000954 | 0.000725 | 0.000628 | 0.00171 | 0.000625 |
| CC(Oc1cccc(Cl)c1)C(=O)O (configuration not stated) [Cloprop] | 0.000593 | 0.000741 | 0.000871 | 0.000692 | 0.000668 | 0.000707 | 0.000786 | 0.000418 |
| CNC(=O)O/N=C(\SC)C(=O)N(C)C [Oxamyl] | 0.000373 | 0.000769 | 0.000681 | 0.000867 | 0.00085 | 0.000749 | 0.00116 | 0.000589 |
| COP(N)(=O)SC (configuration not stated) [Methamidophos] | 0.000556 | 0.00078 | 0.000888 | 0.000627 | 0.000728 | 0.000618 | 0.00107 | 0.00041 |
| O=[N+]([O-])c1c(Cl)c(Cl)c(Cl)c(Cl)c1Cl [Pentachloronitrobenzene] | 0.000514 | 0.000787 | 0.000945 | 0.000828 | 0.000953 | 0.000882 | 0.000911 | 0.000939 |
| CNc1cnn(-c2cccc(C(F)(F)F)c2)c(=O)c1Cl [Norflurazon] | 0.000334 | 0.000839 | 0.001 | 0.000771 | 0.00101 | 0.000643 | 0.00146 | 0.000799 |
| O=C(O)C1(C(=O)Nc2ccc(Cl)cc2Cl)CC1 [Cyclanilide] | 0.00059 | 0.000719 | 0.000997 | 0.000781 | 0.000666 | 0.00123 | 0.00131 | 0.00137 |
| CC(C)Oc1cccc(NC(=O)c2ccccc2C(F)(F)F)c1 [Flutolanil] | 0.000649 | 0.000788 | 0.00153 | 0.000801 | 0.00113 | 0.000882 | 0.00133 | 0.00119 |
| O=C(O)c1cc(Oc2ccc(C(F)(F)F)cc2Cl)ccc1[N+](=O)[O-] [Acifluorfen] | 0.000594 | 0.00133 | 0.00098 | 0.00084 | 0.000877 | 0.000963 | 0.0011 | 0.000654 |
| CC[C@H](C)C1O[C@]2(C=C[C@@H]1C)C[C@@H]1C[C@@H](C/C=C(\C)[C@@H](O[C@H]3C[C@H](OC)[C@@H](O[C@H]4C[C@H](OC)[C@H](NC)[C@H](C)O4)[C@H](C)O3)[C@@H](C)/C=C/C=C3\CO[C@@H]4[C@H](O)C(C)=C[C@@H](C(=O)O1)[C@]34O)O2 (some centres not stated) [Emamectin benzoate] | 0.000487 | 0.000953 | 0.000822 | 0.00108 | 0.000886 | 0.000703 | 0.216 | – |
| CC(C)(C)c1ccc(CSc2cnn(C(C)(C)C)c(=O)c2Cl)cc1 [Pyridaben] | 0.0222 | 0.0136 | 0.0152 | 0.00908 | 0.0112 | 0.0106 | 0.0095 | 0.0122 |
| CCc1cnc(C2=NC(C)(C(C)C)C(=O)N2)c(C(=O)O)c1 (configuration not stated) [Imazethapyr] | 0.00063 | 0.000672 | 0.00142 | 0.00123 | 0.000753 | 0.000621 | 0.0014 | 0.000542 |
| CCOCN(C(=O)CCl)c1c(C)cccc1CC [Acetochlor] | 0.000615 | 0.000906 | 0.00132 | 0.000922 | 0.00101 | 0.000518 | 0.00127 | 0.000394 |
| O=C1c2ccccc2C(=O)N1SC(Cl)(Cl)Cl [Folpet] | 0.000458 | 0.000729 | 0.00176 | 0.000913 | 0.000654 | 0.000872 | 0.00101 | 0.000517 |
| COC(=O)c1ccc(I)cc1S(=O)(=O)NC(=O)Nc1nc(C)nc(OC)n1 [Iodosulfuron-methyl-sodium] | 0.00058 | 0.000892 | 0.000656 | 0.000777 | 0.000927 | 0.000787 | 0.00097 | 0.000668 |
| Cc1cc(Nc2cc(N3CCN(C)CC3)nc(Sc3ccc(NC(=O)C4CC4)cc3)n2)n[nH]1 [VX680] | 0.00074 | 0.000783 | 0.000827 | 0.000547 | 0.000663 | 0.000765 | 0.00105 | 0.000796 |
| CCOC1Oc2ccc(OS(C)(=O)=O)cc2C1(C)C (configuration not stated) [Ethofumesate] | 0.000448 | 0.000732 | 0.00072 | 0.000728 | 0.00077 | 0.000522 | 0.000917 | 0.000519 |
| Cc1c(C)c2c(c(C)c1O)CC[C@@](C)(CCC[C@H](C)CCC[C@H](C)CCCC(C)C)O2 [Vitamin E (alpha-tocopherol)] | 0.000507 | 0.00061 | 0.00065 | 0.000804 | 0.000801 | 0.000821 | 0.000787 | 0.000619 |
| COC(=O)C(C)Oc1ccc(Oc2ccc(Cl)cc2Cl)cc1 (configuration not stated) [Diclofop-methyl] | 0.000522 | 0.000883 | 0.000582 | 0.000881 | 0.000635 | 0.000435 | 0.000836 | 0.000702 |

Arranged by count of non-hydrogen atoms (high to low): three of the compounds above.

| SMILES | cell health score [1] | cell health score [2] | cell health score [3] | cell health score [4] | cell health score [5] | cell health score [6] | cell health score [7] | cell health score [8] |
| --- | --- | --- | --- | --- | --- | --- | --- | --- |
| CC[C@H](C)C1O[C@]2(C=C[C@@H]1C)C[C@@H]1C[C@@H](C/C=C(\C)[C@@H](O[C@H]3C[C@H](OC)[C@@H](O[C@H]4C[C@H](OC)[C@H](NC)[C@H](C)O4)[C@H](C)O3)[C@@H](C)/C=C/C=C3\CO[C@@H]4[C@H](O)C(C)=C[C@@H](C(=O)O1)[C@]34O)O2 (some centres not stated) [Emamectin benzoate] | 0.000487 | 0.000953 | 0.000822 | 0.00108 | 0.000886 | 0.000703 | 0.216 | – |
| Cc1cnc(-c2cnc(NCCNc3ccc(C#N)cn3)nc2-c2ccc(Cl)cc2Cl)[nH]1 | 0.000507 | 0.0018 | 0.0011 | 0.000974 | 0.00108 | 0.000833 | 0.00106 | 0.00109 |
| CCOC1Oc2ccc(OS(C)(=O)=O)cc2C1(C)C (configuration not stated) [Ethofumesate] | 0.000448 | 0.000732 | 0.00072 | 0.000728 | 0.00077 | 0.000522 | 0.000917 | 0.000519 |
